Test in all cases: two-hybrid; directed Y2H with Clontech MatchMaker GAL4 Two-Hybrid System 3 (pGADT7/pGAD-GW and pGBKT7/pGBK-GW constructs); growth on selective medium
For experiment [1], the target named is T1, CJD1_(60–164), GAL4 fusion (directed yeast 2-hybrid) (Arabidopsis thaliana) (UniProt Q93WG3).
T1 sequence: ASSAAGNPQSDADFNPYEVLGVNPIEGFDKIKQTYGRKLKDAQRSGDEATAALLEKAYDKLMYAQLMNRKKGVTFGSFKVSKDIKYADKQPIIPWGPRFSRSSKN

For experiment [2], the target named is ARC6_(84–331) (Arabidopsis thaliana).
In experiment [3] the target is Mature cpHSP70-2 (aa77–718) (Arabidopsis thaliana).
Experiment [4] concerns the target ARC6_(154–331) (Arabidopsis thaliana).
In experiment [5] the target is J domain (amino acids 32–200) of atDjA24 (Arabidopsis thaliana).

Results are given in words; binding and its absence hold for the method and conditions named. For some assays here: Binding can be weak; no strength is given. For some assays here: Sequences can lack the tags named with a protein.

As for “ARC6_(84–331) (Arabidopsis thaliana) (domain or fragment)”, in experiment [1], the binding entry was “binds”.

B1: CJD1_(60–164), GAL4 fusion (directed yeast 2-hybrid) (domain or fragment, UniProt Q93WG3 60-164)
chain: T1 sequence
Turning to B1, the binding result was “binds” in experiment [2], “no binding” in experiment [3] and “no binding” in experiment [4].

B2: Mature cpHSP70-1 (aa77–718) (domain or fragment, UniProt Q9STW6 77-718)
chain: NEKVVGIDLGTTNSAVAAMEGGKPTIVTNAEGQRTTPSVVAYTKSGDRLVGQIAKRQAVVNPENTFFSVKRFIGRKMNEVDEESKQVSYRVVRDENNNVKLECPAINKQFAAEEISAQVLRKLVDDASRFLNDKVTKAVITVPAYFNDSQRTATKDAGRIAGLEVLRIINEPTAASLAYGFDRKANETILVFDLGGGTFDVSVLEVGDGVFEVLSTSGDTHLGGDDFDKRVVDWLAAEFKKDEGIDLLKDKQALQRLTEAAEKAKIELSSLTQTNMSLPFITATADGPKHIETTLTRAKFEELCSDLLDRVRTPVENSLRDAKLSFKDIDEVILVGGSTRIPAVQELVRKVTGKEPNVTVNPDEVVALGAAVQAGVLAGDVSDIVLLDVTPLSIGLETLGGVMTKIIPRNTTLPTSKSEVFSTAADGQTSVEINVLQGEREFVRDNKSLGSFRLDGIPPAPRGVPQIEVKFDIDANGILSVSAVDKGTGKKQDITITGASTLPKDEVDQMVQEAERFAKDDKEKRDAIDTKNQADSVVYQTEKQLKELGEKIPGEVKEKVEAKLQELKDKIGSGSTQEIKDAMAALNQEVMQIGQSLYNQPGAGGPGAGPSPGGEGASSGDSSSSKGGDGDDVIDADFTDSQ
Take B2: the binding result in experiment [5] was “binds”.
